“Also recorded” adds a separate entry of the source. Part of at least one peptide drawing is inferred or uncertain, most often the ends. For some assays here: The name of at least one read-out is uncertain. Some results were stated once for a whole list of compounds, not compound by compound. Where a SMILES comes first, the peptide text is derived from it. [ ]: non-standard residue; d: D form.
What was measured:
[1] = tested on: HeLa cells stably transfected with human ABCA1 cDNA (ABCA1 cells); experiment: Cholesterol and phospholipid efflux from ABCA1 transfected cells; type: cell-based; settings: for cholesterol and phospholipid efflux from ABCA1 cells (in words): 18 hours
Protocol: (§1) Percentage efflux was calculated after subtracting the radioactive counts in the blank media (αMEM plus 1 mg/ml of BSA), and expressed as the percent of total radioactive counts removed from the cells during the efflux period.
(§2) Cell fixation was performed by a 10 minute treatment with 3% paraformaldehyde in phosphate buffered saline (PBS), followed by three washes with blank media. Lactate dehydrogenase (LDH) release from cells into the media was measured enzymatically (Roche Diagnostics, Indianapolis, Ind.) and expressed, after subtraction of LDH released into blank media, as the percentage of total cell LDH. Total cell LDH was determined after cell solubilization with 1% Triton X-100.

[2] = tested on: HeLa cells transfected with only a hygromycin-resistant control plasmid (control cells); experiment: Cholesterol and phospholipid efflux from control cells; type: cell-based, human; settings: 18 hours
Protocol: as §1, §2

[3] = Solubilization of DMPC vesicles (lipid affinity); type: physicochemical; settings: peptide 0.4 mg/ml, DMPC 2 mg/ml, 2 hour incubation at room temperature, 8.5% NaBr
ABCA1 cells [4] = experiment: LDH release from ABCA1 cells; type: cell-based, human; settings: 40 μg/ml for 18 hours
Protocol: as §2
(§3) Incubation of the cells with L-37pA and D-37pA at the maximum concentration and time used for the efflux studies (40 μg/ml for 18 hours) did, however, consistently result in the release of a small amount of LDH from both cell lines (control cells: L-37pA (6.1%±0.2), D-37pA (6.6%±0.1); ABCA1 cells: L-37pA (4.3%±0.04), D-37pA (5.7%±0.1)).

control cells [5] = experiment: LDH release from control cells; type: cell-based, human; settings: 40 μg/ml for 18 hours
Protocol: as §2, §3

control cells [6] = type: binding, human; settings: 4° C.
ABCA1 cells [7] = experiment: Two-step competitive binding of radiolabled L-37pA to ABCA1 cells; design: species or system human; settings: up to 8 μM; 4° C.
Protocol: FIGS. 7A-7B are a pair of graphs illustrating the competitive binding of L-37pA peptide to ABCA1 transfected cells and control cells. ABCA1 cells (FIG. 7A) and control cells (FIG. 7B) were incubated for 3 hours at 4° C. with the indicated concentration of the competitor proteins [L-37pA (triangle), D-37pA (open square), apoA-I (closed circle), L2D-37pA (star), and L3D-37pA (open circle)] and were then washed and incubated for 1 hour at 4° C. with 1 μg/ml of radiolabled L-37pA peptide. Results are expressed as the mean of triplicates±1 SD.
The L-37pA peptide was labeled with ^125I using iodine monochloride. Confluent cells grown on 12-well plates were incubated for 3 hours at 4° C. with the indicated concentration of the unlabeled competitor peptide in αMEM media plus 10 mg/ml of BSA (FIG. 7). The cells were then washed three times and incubated for 1 hour at 4° C. with 1 μg/ml of the radiolabled L-37pA peptide dissolved in αMEM media plus 10 mg/ml of BSA. Cells were washed three times, and cell bound counts were determined after solubilization with 0.1 N NaOH.
A two-step sequential competitive binding assay was performed in order to prevent any potentially interfering interaction of the radiolabled peptide with the competitor proteins (Mendez et al., J. Clin. Invest. 94:1698-1705, 1994). The cells were first incubated with the competitor proteins for 3 hours, washed, and then the cell binding of the radiolabled L-37 peptide was measured. At 8 μM, the maximum concentration tested, which is equivalent to the maximum peptide protein concentration of 40 μg/ml used in the lipid efflux studies (FIG. 1), the unlabeled L-37pA peptide blocked the binding of approximately 40% of the labeled L-37pA peptide (FIG. 7A). […] L2D-37pA and apoA-I acted as intermediate competitors; they each reduced the binding of radiolabled L-37pA to ABCA1 cells by approximately 30% (FIG. 7A).

Structure (SMILES) | reduction in cholesterol and phospholipid efflux from ABCA1 cells compared to the L-37pA peptide ([1]; 18 hour) | cholesterol and phospholipid efflux from ABCA1 cells (in words) [1] | cholesterol and phospholipid efflux from control cells (in words) [2] | DMPC vesicle solubilization (decrease in turbidity at 350 nm) [3] | LDH release from ABCA1 cells (percentage of total cell LDH) (ABCA1 cells [4]) [%] | LDH release from control cells (percentage of total cell LDH) (control cells [5]) [%] | radiolabled L-37pA binding to control cells blocked by competitor (control cells [6]; maximum concentration tested) | competition for the binding of L-37pA to ABCA1 cells (in words) (ABCA1 cells [7]) | competition for the binding of radiolabled L-37pA to control cells (in words) (control cells [6])
CC(C)C[C@H](NC(=O)[C@H](Cc1c[nH]c2ccccc12)NC(=O)[C@H](CC(=O)O)NC(=O)[C@@H]1CCCN1C(=O)[C@H](Cc1ccccc1)NC(=O)[C@H](C)NC(=O)[C@H](CCC(=O)O)NC(=O)[C@H](CCCCN)NC(=O)[C@H](CC(C)C)NC(=O)[C@H](CCCCN)NC(=O)[C@H](CCC(=O)O)NC(=O)[C@H](C)NC(=O)[C@H](NC(=O)[C@H](CCCCN)NC(=O)[C@H](CC(=O)O)NC(=O)[C@@H](Cc1ccc(O)cc1)NC(=O)[C@H](Cc1ccccc1)NC(=O)[C@H](C)NC(=O)[C@H](CCCCN)NC(=O)[C@H](CC(C)C)NC(=O)[C@H](Cc1c[nH]c2ccccc12)NC(=O)[C@@H](N)CC(=O)O)C(C)C)C(=O)N[C@@H](CCCCN)C(=O)N[C@@H](C)C(=O)N[C@@H](Cc1ccccc1)C(=O)N[C@H](Cc1ccc(O)cc1)C(=O)N[C@@H](CC(=O)O)C(=O)N[C@@H](CCCCN)C(=O)N[C@@H](C(=O)N[C@@H](C)C(=O)N[C@@H](CCC(=O)O)C(=O)N[C@@H](CCCCN)C(=O)N[C@@H](CC(C)C)C(=O)N[C@@H](CCCCN)C(=O)N[C@@H](CCC(=O)O)C(=O)N[C@@H](C)C(=O)N[C@@H](Cc1ccccc1)C(=O)O)C(C)C [L2D-37pA] (H-DWLKAF[dY]DK[dV]AEKLKEAFPDWLKAF[dY]DK[dV]AEKLKEAF-OH; N-terminus and C-terminus assumed) | greater than 75% | still retained some ability to efflux lipid from ABCA1 cells | unable; also recorded: did not cause lipid efflux from control cells | intermediate level of DMPC vesicle solubilization; also recorded: only moderate lipid affinity | < 0.5 | < 0.5 | less than 5% |  | 
CC(C)C[C@H](NC(=O)[C@H](Cc1c[nH]c2ccccc12)NC(=O)[C@H](N)CC(=O)O)C(=O)N[C@H](CCCCN)C(=O)N[C@H](C)C(=O)N[C@@H](Cc1ccccc1)C(=O)N[C@@H](Cc1ccc(O)cc1)C(=O)N[C@H](CC(=O)O)C(=O)N[C@H](CCCCN)C(=O)N[C@H](C(=O)N[C@H](C)C(=O)N[C@@H](CCC(=O)O)C(=O)N[C@H](CCCCN)C(=O)N[C@@H](CC(C)C)C(=O)N[C@H](CCCCN)C(=O)N[C@@H](CCC(=O)O)C(=O)N[C@H](C)C(=O)N[C@@H](Cc1ccccc1)C(=O)N1CCC[C@H]1C(=O)N[C@H](CC(=O)O)C(=O)N[C@@H](Cc1c[nH]c2ccccc12)C(=O)N[C@@H](CC(C)C)C(=O)N[C@H](CCCCN)C(=O)N[C@H](C)C(=O)N[C@@H](Cc1ccccc1)C(=O)N[C@@H](Cc1ccc(O)cc1)C(=O)N[C@H](CC(=O)O)C(=O)N[C@H](CCCCN)C(=O)N[C@H](C(=O)N[C@H](C)C(=O)N[C@@H](CCC(=O)O)C(=O)N[C@H](CCCCN)C(=O)N[C@@H](CC(C)C)C(=O)N[C@H](CCCCN)C(=O)N[C@@H](CCC(=O)O)C(=O)N[C@H](C)C(=O)N[C@@H](Cc1ccccc1)C(=O)O)C(C)C)C(C)C [L3D-37pA] (H-[dD]WL[dK][dA]FY[dD][dK]V[dA]E[dK]L[dK]E[dA]FP[dD]WL[dK][dA]FY[dD][dK]V[dA]E[dK]L[dK]E[dA]F-OH; N-terminus and C-terminus assumed) |  | unable to promote detectable amounts of lipid efflux | unable to promote detectable amounts of lipid efflux; also recorded: did not cause lipid efflux from control cells | only a minimal decrease in turbidity; also recorded: only minimal DMPC vesicle solubilization | < 0.5 | < 0.5 |  | completely ineffective | inactive

— patent US8835378B2, “Multi-domain amphipathic helical peptides and methods of their use” (The United States of America as represented by the …, priority 2004, dated 2014)
